From patent publication US9000162B2, “5,8-difluoro-4-(2-(4-(heteroaryloxy)-phenyl)ethylamino)quinazolines and their use as agrochemicals” (Dow AgroSciences LLC, priority 2008, dated 2015)
The name of at least one read-out is uncertain. Some compounds share one wording; it may come from a single statement.

Test system: DROSME, AEDSAE, or LAPHEG (Drosophila melanogaster, Aedes aegypti, Spodoptera exigua)
Assay: Insecticidal activity, diet/water plate tests
Format: in vivo
Conditions: any of DROSME (80 μg/well), AEDSAE (6 μg/well), LAPHEG (12 μg/well) controlled at 80% or more

SMILES	Activity against insects
Fc1ccc(F)c2c(NCCc3ccc(Oc4ccc(C(F)(F)F)cn4)cc3)ncnc12 [Compound 1]	+ (“+” indicates activity)
N#Cc1ccnc(Oc2ccc(CCNc3ncnc4c(F)ccc(F)c34)cc2)c1 [Compound 2]	+ (“+” indicates activity)
Fc1ccc(F)c2c(NCCc3ccc(Oc4nccc(C(F)(F)F)n4)cc3)ncnc12 [Compound 3]	+ (“+” indicates activity)
Oc1ccc(CCNc2ncnc3c(F)ccc(F)c23)cc1 [Compound 4]	− (“−” indicates lack of activity)
Fc1cc(C(F)(F)F)cnc1Oc1ccc(CCNc2ncnc3c(F)ccc(F)c23)cc1 [Compound 5]	+ (“+” indicates activity)
Fc1ccc(F)c2c(NCCc3ccc(Oc4cc(C(F)(F)F)ccn4)cc3)ncnc12 [Compound 6]	+ (“+” indicates activity)
Cc1cc(C(F)(F)F)cc(Oc2ccc(CCNc3ncnc4c(F)ccc(F)c34)cc2)n1 [Compound 7]	+ (“+” indicates activity)
Fc1ccc(F)c2c(NCCOc3ccc(Oc4cc(C(F)(F)F)ccn4)cc3)ncnc12 [Compound 8]	− (“−” indicates lack of activity)
COc1cc(C(F)(F)F)cc(Oc2ccc(CCNc3ncnc4c(F)ccc(F)c34)cc2)n1 [Compound 9]	+ (“+” indicates activity)
CC(F)(F)c1cc[n+]([O-])c(Oc2ccc(CCNc3ncnc4c(F)ccc(F)c34)cc2)c1 [Compound 10]	− (“−” indicates lack of activity)
COc1cc(C(C)(F)F)cc(Oc2ccc(CCNc3ncnc4c(F)ccc(F)c34)cc2)n1 [Compound 11]	+ (“+” indicates activity)
CC(F)(F)c1ccnc(Oc2ccc(CCNc3ncnc4c(F)ccc(F)c34)cc2)c1 [Compound 12]	+ (“+” indicates activity)
Fc1ccc(F)c2c(NCCc3ccc(Oc4ncccc4C(F)(F)F)cc3)ncnc12 [Compound 13]	+ (“+” indicates activity)
COc1cc(CCNc2ncnc3c(F)ccc(F)c23)ccc1O [Compound 14]	− (“−” indicates lack of activity)
COc1cc(CCNc2ncnc3c(F)ccc(F)c23)ccc1Oc1cc(C(F)(F)F)ccn1 [Compound 15]	+ (“+” indicates activity)
COc1cc(CCNc2ncnc3c(F)ccc(F)c23)ccc1Oc1cc(C(C)(F)F)ccn1 [Compound 16]	+ (“+” indicates activity)
COc1cc(C)c(CCNc2ncnc3c(F)ccc(F)c23)cc1C [Compound 17]	+ (“+” indicates activity)
Cc1cc(CCNc2ncnc3c(F)ccc(F)c23)c(C)cc1O [Compound 18]	− (“−” indicates lack of activity)
Cc1cc(Oc2cc(C(F)(F)F)ccn2)c(C)cc1CCNc1ncnc2c(F)ccc(F)c12 [Compound 19]	+ (“+” indicates activity)
COc1ccc(CCNc2ncnc3c(F)ccc(F)c23)c(C)c1C [Compound 20]	− (“−” indicates lack of activity)
COc1ccc(CCNc2ncnc3c(F)ccc(F)c23)cc1C [Compound 21]	− (“−” indicates lack of activity)
Cc1cc(C(F)(F)F)cc(Oc2cc(C)c(CCNc3ncnc4c(F)ccc(F)c34)cc2C)n1 [Compound 22]	+ (“+” indicates activity)

SMILES	Activity against insects
Cc1c(O)ccc(CCNc2ncnc3c(F)ccc(F)c23)c1C [Compound 23]	− (“−” indicates lack of activity)
Cc1cc(CCNc2ncnc3c(F)ccc(F)c23)ccc1O [Compound 24]	− (“−” indicates lack of activity)
Cc1cc(CCNc2ncnc3c(F)ccc(F)c23)ccc1Oc1cc(C(F)(F)F)ccn1 [Compound 25]	+ (“+” indicates activity)
Cc1c(CCNc2ncnc3c(F)ccc(F)c23)ccc(Oc2cc(C(F)(F)F)ccn2)c1C [Compound 26]	+ (“+” indicates activity)
Oc1ccc(CCNc2ncnc3c(F)cc(F)c(F)c23)cc1 [Compound 27]	− (“−” indicates lack of activity)
COC(=O)c1cnc(Oc2ccc(CCNc3ncnc4c(F)ccc(F)c34)cc2)cc1C(F)(F)F [Compound 28]	+ (“+” indicates activity)
COc1cc(C(F)(F)F)cc(Oc2ccc(CCNc3ncnc4c(F)ccc(F)c34)cc2C)n1 [Compound 29]	+ (“+” indicates activity)
COc1cc(C(F)(F)F)cc(Oc2ccc(CCNc3ncnc4c(F)ccc(F)c34)c(C)c2C)n1 [Compound 30]	− (“−” indicates lack of activity)
Fc1cc(F)c2ncnc(NCCc3ccc(Oc4cc(C(F)(F)F)ccn4)cc3)c2c1F [Compound 31]	+ (“+” indicates activity)
COc1ccc(CCNc2ncnc3c(F)ccc(F)c23)cc1Br [Compound 32]	− (“−” indicates lack of activity)
COc1cc(CCNc2ncnc3c(F)cc(F)c(F)c23)ccc1Oc1cc(C(F)(F)F)ccn1 [Compound 34]	+ (“+” indicates activity)
Oc1cccc(CCNc2ncnc3c(F)ccc(F)c23)c1 [Compound 35]	− (“−” indicates lack of activity)
COC(=O)c1cnc(Oc2ccc(CCNc3ncnc4c(F)ccc(F)c34)cc2C)cc1C(F)(F)F [Compound 36]	+ (“+” indicates activity)
Cc1cc(CCNc2ncnc3c(F)ccc(F)c23)ccc1Oc1ccncc1C(F)(F)F [Compound 37]	+ (“+” indicates activity)
Oc1ccc(CCNc2ncnc3c(F)ccc(F)c23)cc1Br [Compound 38]	− (“−” indicates lack of activity)
Fc1ccc(F)c2c(NCCc3ccc(Oc4cc(C(F)(F)F)ccn4)c(Br)c3)ncnc12 [Compound 39]	+ (“+” indicates activity)
Fc1ccc(F)c2c(NCCc3cccc(Oc4cc(C(F)(F)F)ccn4)c3)ncnc12 [Compound 40]	+ (“+” indicates activity)
N#Cc1cc(CCNc2ncnc3c(F)ccc(F)c23)ccc1Oc1cc(C(F)(F)F)ccn1 [Compound 41]	+ (“+” indicates activity)
COc1ccc(CCNc2ncnc3c(F)ccc(F)c23)c(C)c1 [Compound 42]	+ (“+” indicates activity)
Fc1ccc(F)c2c(NCCc3ccc(Oc4cnccc4C(F)(F)F)cc3)ncnc12 [Compound 43]	+ (“+” indicates activity)
COc1cc(CCNc2ncnc3c(F)ccc(F)c23)ccc1Oc1cc(C(F)(F)F)cc(C)n1 [Compound 44]	+ (“+” indicates activity)
COc1cc(CCNc2ncnc3c(F)ccc(F)c23)ccc1Oc1ncc(C(F)(F)F)cc1F [Compound 45]	+ (“+” indicates activity)

SMILES	Activity against insects
COc1ccc(CCNc2ncnc3c(F)ccc(F)c23)cc1F [Compound 46]	+ (“+” indicates activity)
Oc1ccc(CCNc2ncnc3c(F)ccc(F)c23)cc1F [Compound 47]	− (“−” indicates lack of activity)
Fc1cnc(C(F)(F)F)c(F)c1Oc1ccc(CCNc2ncnc3c(F)ccc(F)c23)cc1 [Compound 48]	+ (“+” indicates activity)
Fc1cc(CCNc2ncnc3c(F)ccc(F)c23)ccc1Oc1cc(C(F)(F)F)ccn1 [Compound 49]	+ (“+” indicates activity)
COc1cc(CCNc2ncnc3c(F)ccc(F)c23)ccc1Oc1c(F)cnc(C(F)(F)F)c1F [Compound 50]	+ (“+” indicates activity)
Cc1cc(O)ccc1CCNc1ncnc2c(F)ccc(F)c12 [Compound 51]	− (“−” indicates lack of activity)
COc1cc(CCNc2ncnc3c(F)ccc(F)c23)ccc1Oc1ccc(C(F)(F)F)cn1 [Compound 52]	+ (“+” indicates activity)
COc1cc(CCNc2ncnc3c(F)ccc(F)c23)ccc1Oc1ncc(F)c(C(F)(F)F)c1F [Compound 53]	+ (“+” indicates activity)
[O-][n+]1ccc(C(F)(F)F)cc1Oc1ccc(CCNc2ncnc3c(F)ccc(F)c23)cc1 [Compound 54]	+ (“+” indicates activity)
Cc1cc(Oc2cc(C(F)(F)F)ccn2)ccc1CCNc1ncnc2c(F)ccc(F)c12 [Compound 55]	+ (“+” indicates activity)
Oc1cc(CCNc2ncnc3c(F)ccc(F)c23)ccc1Oc1cc(C(F)(F)F)ccn1 [Compound 56]	− (“−” indicates lack of activity)
CCCOc1cc(CCNc2ncnc3c(F)ccc(F)c23)ccc1Oc1cc(C(F)(F)F)ccn1 [Compound 57]	+ (“+” indicates activity)
CC(C)Oc1cc(CCNc2ncnc3c(F)ccc(F)c23)ccc1Oc1cc(C(F)(F)F)ccn1 [Compound 58]	+ (“+” indicates activity)
COc1cc(CCNc2ncnc3c(F)ccc(F)c23)ccc1Oc1cc(C(F)(F)F)cc[n+]1[O-] [Compound 59]	+ (“+” indicates activity)
CCOc1cc(CCNc2ncnc3c(F)ccc(F)c23)ccc1Oc1cc(C(F)(F)F)ccn1 [Compound 60]	+ (“+” indicates activity)
Cc1cc(CCNc2ncnc3c(F)ccc(F)c23)ccc1Oc1cc(C(F)(F)F)cc[n+]1[O-] [Compound 61]	− (“−” indicates lack of activity)
Cc1cc(CCNc2ncnc3c(F)ccc(F)c23)ccc1Oc1cc(C(C)(F)F)ccn1 [Compound 64]	+ (“+” indicates activity)
C=Cc1cc(CCNc2ncnc3c(F)ccc(F)c23)ccc1Oc1cc(C(F)(F)F)ccn1 [Compound 65]	+ (“+” indicates activity)
CCc1cc(CCNc2ncnc3c(F)ccc(F)c23)ccc1Oc1cc(C(F)(F)F)ccn1 [Compound 66]	+ (“+” indicates activity)
Fc1cc(CCNc2ncnc3c(F)cc(F)c(F)c23)ccc1Oc1cc(C(F)(F)F)ccn1 [Compound 67]	+ (“+” indicates activity)
COc1ccc(CCNc2ncnc3c(F)cc(F)c(F)c23)cc1C [Compound 68]	− (“−” indicates lack of activity)
COc1cc(CCNc2ncnc3c(F)ccc(F)c23)ccc1Oc1c(Cl)cnc(C(F)(F)F)c1Cl [Compound 69]	+ (“+” indicates activity)
